No constants are given. Whether binding was seen depends on the method and setting. In cells and extracts the contact can be indirect. Some results given as binding are weak or reduced against the parent protein; the word gives no strength.
Columns and labels:
[1] = target: T1, ClC-7 (expression product of the CLCN7 gene), endogenous, from solubilized mouse brain membranes (mouse) (UniProt O70496); experiment: co-immunoprecipitation from mouse brain, Western blot (FIG. 3 part (d))
T1 sequence (looked up): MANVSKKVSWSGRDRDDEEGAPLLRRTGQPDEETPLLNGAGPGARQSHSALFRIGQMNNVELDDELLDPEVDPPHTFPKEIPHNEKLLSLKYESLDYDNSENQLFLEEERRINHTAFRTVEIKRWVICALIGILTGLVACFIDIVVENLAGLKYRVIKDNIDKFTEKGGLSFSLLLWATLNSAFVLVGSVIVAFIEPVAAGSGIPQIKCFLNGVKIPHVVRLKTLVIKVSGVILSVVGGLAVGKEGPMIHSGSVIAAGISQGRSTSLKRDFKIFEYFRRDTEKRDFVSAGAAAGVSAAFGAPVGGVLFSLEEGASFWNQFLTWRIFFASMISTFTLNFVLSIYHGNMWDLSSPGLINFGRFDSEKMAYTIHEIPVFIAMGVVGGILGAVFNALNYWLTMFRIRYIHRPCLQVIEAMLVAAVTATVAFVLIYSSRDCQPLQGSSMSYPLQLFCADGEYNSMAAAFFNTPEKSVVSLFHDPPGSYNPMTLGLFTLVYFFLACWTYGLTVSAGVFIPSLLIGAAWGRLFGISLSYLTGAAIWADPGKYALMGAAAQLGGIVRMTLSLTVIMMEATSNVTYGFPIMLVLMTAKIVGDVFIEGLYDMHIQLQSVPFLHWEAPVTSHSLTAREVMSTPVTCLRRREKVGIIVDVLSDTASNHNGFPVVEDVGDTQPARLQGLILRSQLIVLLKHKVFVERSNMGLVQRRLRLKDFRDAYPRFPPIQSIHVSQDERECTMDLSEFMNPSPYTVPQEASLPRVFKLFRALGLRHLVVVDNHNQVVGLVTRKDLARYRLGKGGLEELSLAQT

[2] = target: T1, ClC-7 (expression product of the CLCN7 gene), endogenous, from solubilized mouse brain membranes (mouse); experiment: co-immunoprecipitation from solubilized mouse brain membranes with Ostm1 or ClC-7 antibodies, Western blot
[3] = target: T1, ClC-7 (expression product of the CLCN7 gene), endogenous, from solubilized mouse brain membranes (mouse); experiment: co-immunoprecipitation from solubilized mouse brain membranes with antibodies crosslinked to protein A sepharose, Western blot

Measured: binding

B1: Ostm1 (Osteopetrosis-associated transmembrane protein 1), endogenous, from solubilized mouse brain membranes (other, UniProt Q8BGT0 35-338, looked up)
chain: ALPFTSSRHPGFADLLSEQQLLEVQDLTLSLLQGGGLGPLSLLPPDLPDLEPECRELLMDFANSSAELTACMVRSARPVRLCQTCYPLFQQVAIKMDNISRNIGNTSEGPRCGGSLLTADRMQIVLMVSEFFNSTWQEANCANCLTNNGEDLSNNTEDFLSLFNKTLACFEHNLQGHTYSLLPPKNYSEVCRNCKEAYKNLSLLYSQMQKLNGLENKAEPETHLCIDVEDAMNITRKLWSRTFNCSVTCSDTVSVVAVSVFILFLPVVFYLSSFLHSEQKKRKLILPKRLKSSTSFANIQENAT
modifications: N-linked glycosylation of the luminal domain
notes: Endogenous protein immunoprecipitated from Triton X-100 solubilized mouse brain membranes; also called product of the OSTM1 gene
binds: all assays above
